In patent publication US20110190253A1, “METHOD FOR TREATING TUBERCULOSIS” (priority 2008, published 2011):
At least one structure is not confirmed: it was looked up by name or label, or the drawing left a doubt.

System: extensively drug-resistant (XDR) clinical strains of M. tuberculosis
Assay type: cell-based
Details: thirteen XDR clinical isolates, clavulanate 2.5 μg ml^−1; data not shown

Structure (SMILES): C[C@@H](O)[C@H]1C(=O)N2C(C(=O)O)=C(SCCN=CN)C[C@H]12 [imipenem]
- variability of MIC values among strains: substantial variability
